PubChem BioAssay AID686937, Drosophila RNAi Screening Center, 2013

Test: 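Knock-downs that reduce output of a secreted reporter enzyme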 (primary screen)
Cells: Drosophila S2 cells expressing secreted horseradish peroxidase
Reagent: long dsRNA against Drosophila genes
Time to read-out: about 5.5 days (5 days dsRNA, then 12 h reporter induction)
Challenge: reporter expression induced after 5 days of dsRNA, read 12 h later; inducer not stated
Detection: 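After 5 days of dsRNA and 12 h of reporter induction, medium peroxidase read by chemiluminescence and scored as per-plate z-score; higher values mean more reporter released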
Direction: z-score: higher = more reporter secreted into medium
The screen tested about 23,000 reagents; this is an unselected part of those that have a named target and a result. 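Reduced-secretion tags in replicate 1 do not always agree with the z-scores; no criterion for assigning the tags was given.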 Names joined by + are all predicted targets of the reagent. Further read-outs or replicates are left out here. The record does not give: the amount of reagent.

z-score, replicate 1, by gene and reagent
Mp: DRSC10193 0.11; DRSC11029 0.33; DRSC11030 0.11
Klp64D: DRSC11204 0.37
Agpat1: DRSC19879 0.26; DRSC19880 0.18
Surf1: DRSC11295 -0.22; DRSC11394 -0.02
CG16779: DRSC15153 0.04
slou: DRSC17058 0.39
eas: DRSC20329 0.41
trp: DRSC17088 -0.15
Mtr3: DRSC10953 -0.11
RpS23: DRSC07169 -2.01
CG17221: DRSC00487 0.11
CG5704: DRSC08572 0.27
G6P: DRSC00414 0.05
CG31088: DRSC13123 0.42
lncRNA:CR43334: DRSC07894 -0.07; DRSC07895 0.11
CHMP2B: DRSC10436 0.69
Prosalpha7: DRSC07516 -4.69
CG14971: DRSC08430 0.01
spen: DRSC00839 0.17
Vm26Ab: DRSC03473 0.46
IRSp53: DRSC10891 -0.34
CG2816: DRSC00539 0.02
Smu1: DRSC15803 0.28
Dhc93AB: DRSC16644 0.23
CG14294: DRSC14774 0.49
Prp38: DRSC07060 -1.35
S6k: DRSC11276 -0.39
eIF4A: DRSC03526 -6.41
Zip42C.1: DRSC05003 -0.01
Tsp5D: DRSC18380 0.27
Ibf2: DRSC16551 0.05
CG42372 + CG30100: DRSC05602 0.57
Fer2LCH: DRSC16672 0.39
lectin-21Cb: DRSC00355 0.5
lama: DRSC11361 -0.25
ghi: DRSC08985 -7.14
CG7387: DRSC10833 0.49
drk: DRSC07606 -0.67
CG13725: DRSC10054 0.75
CG7639: DRSC07026 0.08
CG4073: DRSC15542 0.13
EndoB: DRSC07345 -0.78
Fer1HCH: DRSC16671 -0.41
CG34273: DRSC13041 0.73
ab: DRSC01162 -4.53; DRSC03478 -1.14

Entries above whose gene name begins with D or d (2):
z-score, replicate 1, by gene and reagent
Dhc93AB: DRSC16644 0.23
drk: DRSC07606 -0.67

The list goes on:
z-score, replicate 1, by gene and reagent
peg: DRSC15216 0.01
CG6325: DRSC16020 0.31
UQCR-14L: DRSC15288 0.48; DRSC22425 -0.46
sle: DRSC14557 0.28
LManII: DRSC01986 0.21
TwdlV: DRSC12226 0.25
CG11598: DRSC14331 0.4
Cpr76Bc: DRSC11062 0.41
CG1737: DRSC19771 -2.5
Duox: DRSC00571 0.41
NC2alpha: DRSC04059 0.46
Clc: DRSC11116 0.33
CG32425: DRSC11739 -2.93; DRSC11764 0.14
B4: DRSC01868 0.11; DRSC03175 0.47
CR40450 + CG32767: DRSC18387 -0.33
CG9570: DRSC20687 -0.21
CG44014 + CG44013: DRSC14995 -0.01
Cp38: DRSC18453 0.38
Unc-115b + p24-2 + Unc-115a: DRSC16502 -0.01
CG5984: DRSC15930 0.12
CG32413: DRSC21591 0.18
CG17140 + CG17139: DRSC02585 0.31; DRSC02586 0.38
Nbr: DRSC03166 0.17
GABA-B-R3: DRSC00561 0.29
Vps8: DRSC09705 0.4
spaw: DRSC06824 0.14
Epac: DRSC04969 0.65; DRSC04996 0.19; DRSC04997 0.41
mRpL35: DRSC14586 0.17
CG13540: DRSC04182 0.42
CG3448: DRSC10368 0.07
CG17294: DRSC02596 0.26
CR12798: DRSC21078 0.33
Vha26: DRSC12371 -0.13
odd: DRSC00832 -0.52
CG31156: DRSC15753 0.4; DRSC15755 0.38
Rbfox1: DRSC09034 0.24; DRSC10157 0.11; DRSC10320 -0.72; DRSC21378 0.52
CG11368: DRSC17778 -0.11
CR40441: DRSC22916 -0.64
Spn28B: DRSC02982 -0.3
CG8132: DRSC16383 0.67
CG2961: DRSC18246 0.34
CG9993: DRSC04599 -0.21
CG13842: DRSC14692 0.38
